Laboratory results published in the supplement of paper PMC12889115.
This is one part of the list. Values are raw readings; no control value is given beside them.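 In the initial screen, polymyxin B was used at a concentration that permeabilizes Salmonella's outer membrane but not its inner membrane. Maximum growth was set by DMSO wells with or without polymyxin B. Since plates varied, data were ranked per plate, and compounds giving the lowest OD600 advanced as hits.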

System: Salmonella enterica serovar Typhimurium SL1344
Assay: bacterial growth OD600 after 18 h with compound and polymyxin B; higher = more bacterial growth (less inhibition)
Details: 50 µM, Mueller-Hinton broth

| Compound | bacterial growth OD600 (polymyxin B 1 µg/mL) | bacterial growth OD600 (polymyxin B 0.75 µg/mL) |
| --- | --- | --- |
| Cc1ccc(Oc2ncccc2CNC(=O)CN(C)C)c(F)c1F | 1.02 | – |
| CC(=O)N1CCC(N2CCCC(CCc3ccc(F)cc3F)C2)CC1 (stereo unspecified) | – | 0.836 |
| COCCO[C@H]1[C@H](NC(=O)C(C)C)c2ccccc2C12CCN(Cc1nc3ccccc3s1)CC2 | – | 0.632 |
| COCc1c(C(=O)N(C)CC2COCCO2)cnn1-c1nccc(-c2cc(C)sc2C)n1 (stereo unspecified) | – | 0.866 |
| CCN(CC)C1CCN(C(=O)CN2Cc3cc(Cl)ccc3OC(C)C2)C1 (stereo unspecified) | – | 0.846 |
| O=C(c1ccc(N2CCC(NCCc3ccc(C(F)(F)F)cc3)CC2)cc1)N1CCOCC1 | – | 0.005 |
| Cc1ccc(OCc2cc(C(=O)N3CCCC(CN4CCOCC4)C3)no2)cn1 (stereo unspecified) | 1.05 | – |
| CN(C)c1ncc(CN2CCC(CCC(=O)NCc3cccnc3)CC2)s1 | 0.926 | – |
| COc1ccccc1OCC(=O)N1CCc2c(cnc(C)c2CNC(=O)C(OC)c2ccccc2)C1 (stereo unspecified) | – | 0.714 |
| C[C@@H]1CN(C2(C(=O)N3CCc4sccc4C3)Cc3ccccc3C2)C[C@H](C)O1 | – | 0.276 |
| NC(=O)CC1CCCCN1c1ccc(-c2nc(-c3ccccc3F)no2)cn1 (stereo unspecified) | 0.397 | – |
| COc1ccc(C(=O)N2CCc3onc(-c4cccc(F)c4)c3C2)c(OC)c1 | – | 0.461 |
| COC(=O)c1cc(CNC(=O)[C@@H]2C[C@@H]3C=C[C@H]2C3)cc(NS(=O)(=O)c2ccc(F)cc2)c1 | – | 0.769 |
| O=C(Cn1nnnc1CN1CCCCCC1)NCCc1c[nH]c2ccccc12 | – | 0.78 |
| Cc1cc(-n2cccn2)ccc1CNC1CCCc2c1cnn2-c1ccccn1 (stereo unspecified) | – | 0.766 |
| CCOC(=O)C1(Cc2cccc(OC)c2)CCN(Cc2cccn2-c2nccs2)CC1 | 0.767 | – |

3 entries out of the list, arranged by formula weight, descending:

| Compound | bacterial growth OD600 (polymyxin B 1 µg/mL) | bacterial growth OD600 (polymyxin B 0.75 µg/mL) |
| --- | --- | --- |
| COC(=O)c1cc(CNC(=O)[C@@H]2C[C@@H]3C=C[C@H]2C3)cc(NS(=O)(=O)c2ccc(F)cc2)c1 | – | 0.769 |
| Cc1ccc(OCc2cc(C(=O)N3CCCC(CN4CCOCC4)C3)no2)cn1 (stereo unspecified) | 1.05 | – |
| CC(=O)N1CCC(N2CCCC(CCc3ccc(F)cc3F)C2)CC1 (stereo unspecified) | – | 0.836 |

Following part.

| Compound | bacterial growth OD600 (polymyxin B 1 µg/mL) | bacterial growth OD600 (polymyxin B 0.75 µg/mL) |
| --- | --- | --- |
| COc1cc(OC)cc(C(=O)NCC2CCCN(C(=O)c3cc(C)on3)C2)c1 (stereo unspecified) | 0.935 | – |
| CC(C)CCCC1CN(C(=O)CCN2CCCO2)CCO1 (stereo unspecified) | 0.943 | – |
| COc1cc(CN2CCCC(CO)(Cc3cccc(Cl)c3)C2)cc(Cl)c1OC (stereo unspecified) | 0.001 | – |
| C=CCNCCC1CCC(=O)N1CCCc1ccccc1 (stereo unspecified) | – | 0.769 |
| COc1ccc2c(c1)OC(C)CN(CC(=O)NCC(c1ccc(F)cc1)N1CCCC1)C2 (stereo unspecified) | – | 0.702 |
| CC#CCN1C(=O)NC(CCc2ccccc2)(C2CCN(C(=O)/C=C/c3ccccc3)CC2)C1=O (stereo unspecified) | – | 0.033 |
| CCOC(=O)N1CCC(NC(=O)CC2(c3ccccc3C)CC(=O)N(CCCOC)C2=O)CC1 (stereo unspecified) | – | 0.861 |
| Cc1oc(-c2cccc(Oc3ccccc3)c2)nc1CN1CCN(c2cnccn2)CC1 | 0.003 | – |
| Cc1oc(-c2ccccc2NS(=O)(=O)c2cccc(F)c2)nc1CNC(=O)CCc1ccccc1 | – | 0.655 |
| Cc1ccc(NC2CCCN(C(=O)C(C)(C)C)C2)cc1C (stereo unspecified) | 0.851 | – |
| O=C(C1CCOC1)N1CCc2[nH]nc(-c3cccc(F)c3)c2C1 (stereo unspecified) | – | 0.839 |
| O=C(Nc1ccc(Oc2cccnc2)cc1)C1CCCCN1Cc1cccc2nonc12 (stereo unspecified) | – | 0.38 |
| CCN(CC)C(=O)C1CCCN(C(=O)CC2(c3cccc(C(F)(F)F)c3)CC(=O)N(CC)C2=O)C1 (stereo unspecified) | – | 0.911 |
| CC(C)Nc1ccc(-c2nc(COc3ccccc3)no2)cn1 | 0.055 | – |
| O=C(NCC1(c2ccccc2)CCOCC1)c1cn(Cc2ccc(F)cc2)nn1 | 1.11 | – |
